According to paper PMC12123601, “Light-Induced, Lysine-Targeting Irreversible Covalent Inhibition of the Human Oxygen Sensing Hydroxylase Factor Inhibiting HIF (FIH)” (Journal of the American Chemical Society, 2025):

Experiment: Light-induced click conjugation with Cbz-Lys-OMe monitored by LC-MS
Conditions: for Click reaction with Cbz-Lys-OMe under light activation (LC–MS): Hepes buffer, irradiation 365 nm, 16 W, 0-4 h
Procedure: To investigate the feasibility of the covalent inhibitor design, we first investigated the reactivity of NBA-ZG-2291 with Cbz-Lys-OMe, i.e. a diprotected lysine residue, under 365 nm light-mediated activation in the buffer (Figure A). Liquid chromatography–mass spectrometry (LC–MS) experiments were conducted to monitor the formation of the potential indazolone product. The reaction proceeded smoothly upon light activation (365 nm, 16 W). […] The product was identified as 3 by mass spectrometric analysis (Figure S2). After 2 h of light exposure, the reaction reached saturation with a yield of ∼90% (Figure C). NBA-ZG-2291 and Cbz-Lys-OMe in the buffer can undergo an aldehyde-amine ligation-like coupling reaction under UV irradiation. The reaction begins with the photolysis of o-NBA rapidly generating o-nitroso benzaldehyde. The primary amine of Cbz-Lys-OMe undergoes condensation with o-nitroso benzaldehyde, leading to subsequent formation of the indazolone product (Figure S3).
2 Light-induced click conjugation between NBA-ZG-2291 (500 μM) and Cbz-Lys-OMe (lysine residue, 2 mM). (A) Light-induced click conjugation of primary amine 2 with o-NBA derivate 1. (B) Peaks for the conjugated product (3) increased after light activation. (C) The reaction proceeded efficiently after light activation. TEXT PRINTED IN THE PICTURE: (A) NBA-ZG-2291 (1): MW1 = 414 | (A) Cbz-Lys-OMe (2): MW2 = 294 | (A) Product (3): MW3 = 672 = MW1 + 378
Based on the proposed mechanism, we designed and synthesized two control compounds lacking the para-hydroxy methyl group (Neg-1, Table S1, Figure A) or the meta-nitro group (Neg-2, Table S2, Figure A) compared to NBA-ZG-2291.

O=C(O)CNC(=O)c1ncc(-c2cc(-c3ccc(CO)c([N+](=O)[O-])c3)no2)cc1O [NBA-ZG-2291]
Yield of indazolone product in light-induced click conjugation (500 μM compound, 2 mM Cbz-Lys-OMe, buffer, 2 h light exposure (365 nm, 16 W)): ~90%

O=C(O)CNC(=O)c1ncc(-c2cc(-c3cccc([N+](=O)[O-])c3)no2)cc1O [Neg-1]
Click reaction with Cbz-Lys-OMe under light activation (LC–MS): neither of the control compounds undergoes click reaction

O=C(O)CNC(=O)c1ncc(-c2cc(-c3ccc(CO)cc3)no2)cc1O [Neg-2]
Click reaction with Cbz-Lys-OMe under light activation (LC–MS): neither of the control compounds undergoes click reaction
